Assay results taken from the supplement of paper PMC12819154, “High-throughput peptide-centric local stability assay extends protein–ligand identification to membrane proteins, tissues and bacteria” (Nature Structural & Molecular Biology, 2025).
Some of the results follow. Small differences around the control level are noise.

Protein sequences, listed by entry. Tags and fused reporters are not part of them. Lines headed by an entry give the natural chain unless they say otherwise; changes in a name come on top.
UniProt P55345: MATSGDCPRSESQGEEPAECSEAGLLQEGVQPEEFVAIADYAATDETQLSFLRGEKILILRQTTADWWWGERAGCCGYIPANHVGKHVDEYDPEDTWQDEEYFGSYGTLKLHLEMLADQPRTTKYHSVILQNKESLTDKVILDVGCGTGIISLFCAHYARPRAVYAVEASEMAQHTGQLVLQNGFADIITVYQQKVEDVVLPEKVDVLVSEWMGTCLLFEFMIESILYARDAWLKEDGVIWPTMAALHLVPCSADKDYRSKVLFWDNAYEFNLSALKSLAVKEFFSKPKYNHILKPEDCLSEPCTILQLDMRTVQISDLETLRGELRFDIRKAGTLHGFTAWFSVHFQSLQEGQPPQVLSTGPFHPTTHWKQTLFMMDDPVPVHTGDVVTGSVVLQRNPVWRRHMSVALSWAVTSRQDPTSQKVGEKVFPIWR
UniProt P80217: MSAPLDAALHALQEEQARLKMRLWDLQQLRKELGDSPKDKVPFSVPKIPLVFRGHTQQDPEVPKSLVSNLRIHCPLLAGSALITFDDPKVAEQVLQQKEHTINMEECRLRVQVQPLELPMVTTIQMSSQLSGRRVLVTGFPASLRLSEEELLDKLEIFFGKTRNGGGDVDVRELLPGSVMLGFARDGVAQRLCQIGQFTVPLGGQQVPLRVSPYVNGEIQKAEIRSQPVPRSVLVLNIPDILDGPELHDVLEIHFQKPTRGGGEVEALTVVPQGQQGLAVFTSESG
UniProt P67775, whole entry: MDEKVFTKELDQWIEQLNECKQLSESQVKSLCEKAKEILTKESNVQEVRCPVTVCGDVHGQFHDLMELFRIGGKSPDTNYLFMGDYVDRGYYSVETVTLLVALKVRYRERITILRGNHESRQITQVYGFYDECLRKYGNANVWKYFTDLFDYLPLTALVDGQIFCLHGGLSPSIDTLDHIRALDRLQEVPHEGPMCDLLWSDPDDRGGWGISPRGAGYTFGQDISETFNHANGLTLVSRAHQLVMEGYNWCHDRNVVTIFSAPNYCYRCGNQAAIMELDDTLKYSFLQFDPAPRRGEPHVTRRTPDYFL
UniProt P82909: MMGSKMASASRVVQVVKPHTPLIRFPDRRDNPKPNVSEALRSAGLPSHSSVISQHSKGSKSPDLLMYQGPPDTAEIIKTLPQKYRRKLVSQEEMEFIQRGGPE
UniProt P55160: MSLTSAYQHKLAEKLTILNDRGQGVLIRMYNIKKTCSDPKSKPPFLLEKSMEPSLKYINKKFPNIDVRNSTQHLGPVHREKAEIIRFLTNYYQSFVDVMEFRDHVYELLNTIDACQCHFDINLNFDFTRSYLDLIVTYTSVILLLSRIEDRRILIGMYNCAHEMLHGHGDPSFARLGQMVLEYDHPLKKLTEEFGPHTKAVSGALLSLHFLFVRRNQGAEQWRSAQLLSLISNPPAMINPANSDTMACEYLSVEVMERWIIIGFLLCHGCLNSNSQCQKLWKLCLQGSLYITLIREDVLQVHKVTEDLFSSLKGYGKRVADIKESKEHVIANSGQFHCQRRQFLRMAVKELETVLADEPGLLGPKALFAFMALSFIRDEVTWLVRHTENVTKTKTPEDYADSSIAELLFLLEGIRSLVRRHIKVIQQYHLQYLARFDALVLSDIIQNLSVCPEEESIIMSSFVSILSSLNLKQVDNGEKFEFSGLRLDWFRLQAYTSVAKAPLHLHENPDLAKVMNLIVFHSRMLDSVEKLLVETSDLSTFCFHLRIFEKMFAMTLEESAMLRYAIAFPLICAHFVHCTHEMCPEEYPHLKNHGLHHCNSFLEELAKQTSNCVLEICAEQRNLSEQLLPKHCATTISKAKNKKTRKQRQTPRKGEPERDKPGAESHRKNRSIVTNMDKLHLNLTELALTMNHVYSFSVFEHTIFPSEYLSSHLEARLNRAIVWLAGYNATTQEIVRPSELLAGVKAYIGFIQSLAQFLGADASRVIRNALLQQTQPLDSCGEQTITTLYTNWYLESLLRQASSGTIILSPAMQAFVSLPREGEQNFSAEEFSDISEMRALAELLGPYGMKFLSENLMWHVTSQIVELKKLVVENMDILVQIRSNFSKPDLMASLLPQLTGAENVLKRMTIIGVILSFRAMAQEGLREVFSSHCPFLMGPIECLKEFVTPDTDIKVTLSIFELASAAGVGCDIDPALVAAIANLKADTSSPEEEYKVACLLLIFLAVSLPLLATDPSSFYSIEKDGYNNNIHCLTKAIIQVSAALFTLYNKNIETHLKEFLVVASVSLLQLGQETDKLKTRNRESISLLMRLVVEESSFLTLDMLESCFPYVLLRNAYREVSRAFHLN
UniProt P60468, whole entry: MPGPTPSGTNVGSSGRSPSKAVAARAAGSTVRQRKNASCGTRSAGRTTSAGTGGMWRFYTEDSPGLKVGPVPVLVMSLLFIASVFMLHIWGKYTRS
UniProt P78406: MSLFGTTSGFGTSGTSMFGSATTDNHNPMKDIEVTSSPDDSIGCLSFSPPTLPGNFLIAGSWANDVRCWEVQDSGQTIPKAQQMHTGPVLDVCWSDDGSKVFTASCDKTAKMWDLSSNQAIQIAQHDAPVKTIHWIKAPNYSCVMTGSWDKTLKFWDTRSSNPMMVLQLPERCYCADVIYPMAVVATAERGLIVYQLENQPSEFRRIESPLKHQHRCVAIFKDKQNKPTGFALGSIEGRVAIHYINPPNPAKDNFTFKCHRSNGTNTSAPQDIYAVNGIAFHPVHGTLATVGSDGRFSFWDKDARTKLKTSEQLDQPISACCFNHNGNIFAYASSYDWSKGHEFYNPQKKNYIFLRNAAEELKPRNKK
UniProt P55198: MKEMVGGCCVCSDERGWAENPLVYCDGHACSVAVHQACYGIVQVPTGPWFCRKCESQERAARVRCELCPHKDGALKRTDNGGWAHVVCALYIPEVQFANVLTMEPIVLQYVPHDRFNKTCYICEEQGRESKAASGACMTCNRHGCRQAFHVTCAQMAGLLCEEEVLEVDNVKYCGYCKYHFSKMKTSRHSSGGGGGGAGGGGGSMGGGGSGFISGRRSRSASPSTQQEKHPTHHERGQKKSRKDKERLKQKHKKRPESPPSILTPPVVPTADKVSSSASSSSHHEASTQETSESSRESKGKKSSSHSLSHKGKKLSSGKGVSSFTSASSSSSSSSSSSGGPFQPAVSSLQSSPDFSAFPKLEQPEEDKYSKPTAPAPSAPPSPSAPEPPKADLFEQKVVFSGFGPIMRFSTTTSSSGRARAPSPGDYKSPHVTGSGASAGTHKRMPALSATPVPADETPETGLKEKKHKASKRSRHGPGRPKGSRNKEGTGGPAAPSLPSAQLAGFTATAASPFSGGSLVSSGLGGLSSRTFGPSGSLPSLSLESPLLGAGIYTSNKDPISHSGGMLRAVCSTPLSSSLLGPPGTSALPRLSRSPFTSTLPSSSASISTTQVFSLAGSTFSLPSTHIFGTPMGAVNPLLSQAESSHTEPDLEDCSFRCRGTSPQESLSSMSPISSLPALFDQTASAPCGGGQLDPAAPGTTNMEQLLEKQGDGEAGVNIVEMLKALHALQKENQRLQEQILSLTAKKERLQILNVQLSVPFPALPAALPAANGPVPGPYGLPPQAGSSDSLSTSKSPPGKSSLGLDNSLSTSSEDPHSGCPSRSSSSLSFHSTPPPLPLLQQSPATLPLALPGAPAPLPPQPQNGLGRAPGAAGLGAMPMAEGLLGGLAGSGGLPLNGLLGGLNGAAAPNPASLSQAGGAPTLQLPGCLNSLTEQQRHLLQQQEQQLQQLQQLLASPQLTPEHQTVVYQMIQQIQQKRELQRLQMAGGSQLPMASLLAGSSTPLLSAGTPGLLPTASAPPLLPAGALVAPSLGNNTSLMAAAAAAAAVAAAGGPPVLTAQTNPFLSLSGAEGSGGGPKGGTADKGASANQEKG
UniProt P61201: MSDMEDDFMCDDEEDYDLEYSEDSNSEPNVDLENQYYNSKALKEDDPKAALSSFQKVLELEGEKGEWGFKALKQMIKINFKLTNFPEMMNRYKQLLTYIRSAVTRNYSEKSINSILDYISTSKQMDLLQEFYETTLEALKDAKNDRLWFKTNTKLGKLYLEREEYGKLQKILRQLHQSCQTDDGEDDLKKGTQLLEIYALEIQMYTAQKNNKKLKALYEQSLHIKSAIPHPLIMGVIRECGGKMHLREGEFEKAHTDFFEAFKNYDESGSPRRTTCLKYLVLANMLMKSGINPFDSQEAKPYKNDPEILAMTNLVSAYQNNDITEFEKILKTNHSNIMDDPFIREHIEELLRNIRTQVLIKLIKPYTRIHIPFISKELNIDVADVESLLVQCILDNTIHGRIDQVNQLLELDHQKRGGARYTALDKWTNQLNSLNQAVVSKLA
UniProt P62253: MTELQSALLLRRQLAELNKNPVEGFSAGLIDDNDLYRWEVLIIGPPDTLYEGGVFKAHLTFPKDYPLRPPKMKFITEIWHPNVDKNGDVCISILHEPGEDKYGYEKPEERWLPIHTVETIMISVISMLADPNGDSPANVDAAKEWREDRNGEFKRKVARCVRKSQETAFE
UniProt P55822: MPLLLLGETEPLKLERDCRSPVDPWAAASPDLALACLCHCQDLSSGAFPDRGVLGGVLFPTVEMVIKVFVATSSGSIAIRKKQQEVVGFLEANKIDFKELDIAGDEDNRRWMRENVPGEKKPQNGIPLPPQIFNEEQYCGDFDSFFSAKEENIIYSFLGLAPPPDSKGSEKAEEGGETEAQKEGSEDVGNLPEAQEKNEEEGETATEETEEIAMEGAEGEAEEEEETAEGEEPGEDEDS
UniProt P58340: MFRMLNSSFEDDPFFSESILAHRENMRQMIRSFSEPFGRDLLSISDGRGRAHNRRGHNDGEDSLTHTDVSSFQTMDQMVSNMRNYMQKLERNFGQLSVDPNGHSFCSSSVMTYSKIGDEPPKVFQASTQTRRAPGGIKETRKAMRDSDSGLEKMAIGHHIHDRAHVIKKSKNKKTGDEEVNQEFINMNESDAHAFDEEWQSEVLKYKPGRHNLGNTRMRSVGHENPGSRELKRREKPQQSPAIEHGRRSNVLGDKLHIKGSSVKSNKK
UniProt P78317: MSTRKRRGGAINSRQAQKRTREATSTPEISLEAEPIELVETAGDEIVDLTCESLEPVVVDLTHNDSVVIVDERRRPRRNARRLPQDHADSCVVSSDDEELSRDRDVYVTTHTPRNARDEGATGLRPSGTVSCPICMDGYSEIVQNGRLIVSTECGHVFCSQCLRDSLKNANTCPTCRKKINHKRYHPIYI
UniProt P62310: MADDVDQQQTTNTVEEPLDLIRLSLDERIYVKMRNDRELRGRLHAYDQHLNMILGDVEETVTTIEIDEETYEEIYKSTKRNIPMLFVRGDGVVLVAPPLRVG
UniProt P83916, whole entry, looked up: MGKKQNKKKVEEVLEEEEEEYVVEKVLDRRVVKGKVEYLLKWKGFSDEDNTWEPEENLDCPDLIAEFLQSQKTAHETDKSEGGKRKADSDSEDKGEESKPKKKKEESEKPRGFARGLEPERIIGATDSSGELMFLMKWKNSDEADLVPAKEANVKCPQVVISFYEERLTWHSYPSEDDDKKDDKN
UniProt P62316, whole entry: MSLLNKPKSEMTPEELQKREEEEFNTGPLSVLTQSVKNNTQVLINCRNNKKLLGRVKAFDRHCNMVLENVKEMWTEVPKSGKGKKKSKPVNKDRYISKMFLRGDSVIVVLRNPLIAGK
UniProt P67870, whole entry: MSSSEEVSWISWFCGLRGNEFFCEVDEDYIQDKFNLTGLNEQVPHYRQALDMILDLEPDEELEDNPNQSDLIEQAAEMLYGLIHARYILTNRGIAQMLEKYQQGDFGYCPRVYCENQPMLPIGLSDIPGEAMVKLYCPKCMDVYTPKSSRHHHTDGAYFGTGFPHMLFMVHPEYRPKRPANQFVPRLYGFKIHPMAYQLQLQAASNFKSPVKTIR

These targets were tested with CN[C@@H]1C[C@H]2O[C@@](C)([C@@H]1OC)n1c3ccccc3c3c4c(c5c6ccccc6n2c5c31)C(=O)NC4 [staurosporine] (assay: log2 fold change of tryptic peptide abundance, ligand vs vehicle (limited proteolysis) (log2 ratio); higher = more trypsin-susceptible (destabilized)). Conditions: ligand concentration: 20 uM; sample: K562 cleared lysate; digestion: 4 min, 22 C (HT-PELSA RT4min, Orbitrap Astral).

Target | log2 fold change
PRMT2 (peptide sequence: AGCCGYIPANHVGK, peptide start residue: 73) (UniProt P55345) | 0.0878
IFI35 (peptide sequence: VSPYVNGEIQK, peptide start residue: 211) (UniProt P80217) | 0.397
RPS27A (peptide sequence: YYKVDENGKISR, peptide start residue: 105) (UniProt P62979) | -0.249
PPP2CA (peptide sequence: QITQVYGFYDECLRK, peptide start residue: 119) (UniProt P67775) | -0.206
MRPS36 (peptide sequence: VVQVVKPHTPLIR, peptide start residue: 12) (UniProt P82909) | -0.242
NCKAP1L (peptide sequence: HCATTISK, peptide start residue: 631) (UniProt P55160) | -0.0794
SEC61B (peptide sequence: FYTEDSPGLK, peptide start residue: 58) (UniProt P60468) | -0.405
UniProt P61513 (peptide sequence: IEISQHAK, peptide start residue: 29) | -0.148
EPPK1 (peptide sequence: LSVEEAVAAGVVGGEIQEK, peptide start residue: 2281) (UniProt P58107) | -0.269
RAE1 (peptide sequence: FSFWDKDAR, peptide start residue: 297) (UniProt P78406) | -0.602
POLR2F (peptide sequence: ITTPYMTKYER, peptide start residue: 52) (UniProt P61218) | 0.746
UniProt P55198 (peptide sequence: VVFSGFGPIMR, peptide start residue: 398) | -0.0882
UniProt P61201 (peptide sequence: LIKPYTR, peptide start residue: 362) | 0.677
UniProt P62253 (peptide sequence: AHLTFPKDYPLRPPK, peptide start residue: 57) | -0.13
UniProt P62826 (peptide sequence: SIVFHRK, peptide start residue: 135) | 0.328
UniProt P59998 (peptide sequence: HNKPEVEVR, peptide start residue: 33) | 0.2
MRPS35 (peptide sequence: TPGNERPPR, peptide start residue: 41) (UniProt P82673) | -0.413
UniProt P62249 (peptide sequence: GPLQSVQVFGR, peptide start residue: 5) | 0.212
SH3BGR (peptide sequence: AEEGGETEAQK, peptide start residue: 172) (UniProt P55822) | 0.577
MLF1 (peptide sequence: DLLSISDGR, peptide start residue: 40) (UniProt P58340) | 0.176
RNF4 (peptide sequence: DVYVTTHTPR, peptide start residue: 105) (UniProt P78317) | 0.353
UniProt P62310 (peptide sequence: GDGVVLVAPPLR, peptide start residue: 89) | 0.0964
UniProt P83916 (peptide sequence: CPQVVISFYEER, peptide start residue: 156) | -0.156
UniProt P62316 (peptide sequence: EMWTEVPK, peptide start residue: 72) | 0.256
CSNK2B (peptide sequence: IHPMAYQLQLQAASNFK, peptide start residue: 192) (UniProt P67870) | 0.00048

Fetched one by one from above (two):
Target | log2 fold change
EPPK1 (peptide sequence: LSVEEAVAAGVVGGEIQEK, peptide start residue: 2281) (UniProt P58107) | -0.269
UniProt P59998 (peptide sequence: HNKPEVEVR, peptide start residue: 33) | 0.2
